Results from the supplement of paper PMC4604168 (melanoma cell lines).
The other results are listed elsewhere or left out. Many values rest on one well or one pass, so single values are uncertain.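 The apoptosis fraction was the count of cleaved-PARP antibody-stained nuclei relative to all DNA-stained nuclei, imaged in 1,536-well plates. Screening doses were set so most cells survived, and baseline and induced cleaved-PARP levels vary greatly across cell lines.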

Test system: RPMI7951
Assay: cleaved PARP positive nuclei fraction relative to DMSO control; melanoma cells; higher = more apoptosis
Settings: library dose: low library concentration; 72 h

Structure (SMILES) | cleaved PARP positive nuclei fraction
Cc1cn(-c2cc(NC(=O)c3ccc(C)c(Nc4nccc(-c5cccnc5)n4)c3)cc(C(F)(F)F)c2)cn1 [nilotinib] + CNC(=O)c1cc(Oc2ccc(NC(=O)Nc3ccc(Cl)c(C(F)(F)F)c3)cc2)ccn1 [sorafenib] (first compound 0.2 µM, partner dose 0.4 µM) | 114%
O=c1[nH]nc(Sc2ncc([N+](=O)[O-])s2)n1-c1ccc2c(c1)OCCO2 + Nc1nc(F)nc2c1ncn2[C@@H]1O[C@H](CO)[C@@H](O)[C@@H]1O [fludarabine] (first compound 0.2 µM, partner dose 0.2 µM) | 141%
Cc1cn(-c2cc(NC(=O)c3ccc(C)c(Nc4nccc(-c5cccnc5)n4)c3)cc(C(F)(F)F)c2)cn1 [nilotinib] + CCCS(=O)(=O)Nc1ccc(F)c(C(=O)c2c[nH]c3ncc(Cl)cc23)c1F [PLX4720] (first compound 0.2 µM, partner dose 0.08 µM) | 224%
O=C(Nc1cc(C(F)(F)F)cc(C(F)(F)F)c1)c1cc(Cl)ccc1O + CC(=O)O[C@@]12CO[C@@H]1C[C@H](O)[C@@]1(C)C(=O)[C@H](O)C3=C(C)[C@@H](OC(=O)[C@H](O)[C@@H](NC(=O)OC(C)(C)C)c4ccccc4)C[C@@](O)([C@@H](OC(=O)c4ccccc4)[C@H]21)C3(C)C [Docetaxel] (first compound 0.016 µM, partner dose 0.0001 µM) | 430%
O=C(/C=C/c1cccnc1)NCCCCC1CCN(C(=O)c2ccccc2)CC1 + Nc1nc(F)nc2c1ncn2[C@@H]1O[C@H](CO)[C@@H](O)[C@@H]1O [fludarabine] (first compound 0.01 µM, partner dose 0.2 µM) | 35.6%
N#CC[C@H](C1CCCC1)n1cc(-c2ncnc3[nH]ccc23)cn1 [ruxolitinib] + NC1(c2ccc(-c3nc4ccn5c(=O)[nH]nc5c4cc3-c3ccccc3)cc2)CCC1 [MK2206] (first compound 1 µM, partner dose 0.4 µM) | 147%
CCCCCCCCCCCCCCCCCCOP(=O)([O-])OC1CC[N+](C)(C)CC1 [Perifosine] + Cn1c(=O)n(-c2ccc(C(C)(C)C#N)cc2)c2c3cc(-c4cnc5ccccc5c4)ccc3ncc21 [NVP-BEZ235] (first compound 0.4 µM, partner dose 0.004 µM) | 98.5%
CC[C@]1(O)C[C@H]2CN(CCc3c([nH]c4ccccc34)[C@@](C(=O)OC)(c3cc4c(cc3OC)N(C=O)[C@H]3[C@@](O)(C(=O)OC)[C@H](OC(C)=O)[C@]5(CC)C=CCN6CC[C@]43[C@@H]65)C2)C1 [vincristine] + CC(=O)O[C@@]12CO[C@@H]1C[C@H](O)[C@@]1(C)C(=O)[C@H](O)C3=C(C)[C@@H](OC(=O)[C@H](O)[C@@H](NC(=O)OC(C)(C)C)c4ccccc4)C[C@@](O)([C@@H](OC(=O)c4ccccc4)[C@H]21)C3(C)C [Docetaxel] (first compound 0.0001 µM, partner dose 0.0001 µM) | 225%
CCCCCCCCCCCCCCCCCCOP(=O)([O-])OC1CC[N+](C)(C)CC1 [Perifosine] + CO[C@H]1C[C@@H]2CC[C@@H](C)[C@@](O)(O2)C(=O)C(=O)N2CCCC[C@H]2C(=O)O[C@H]([C@H](C)C[C@@H]2CC[C@@H](OCCO)[C@H](OC)C2)CC(=O)[C@H](C)/C=C(\C)[C@@H](O)[C@@H](OC)C(=O)[C@H](C)C[C@H](C)/C=C/C=C/C=C/1C [everolimus] (first compound 0.4 µM, partner dose 0.02 µM) | 166%
Cc1ccc(Nc2nccc(N(C)c3ccc4c(C)n(C)nc4c3)n2)cc1S(N)(=O)=O [Pazopanib] + CS(=O)(=O)CCNCc1ccc(-c2ccc3ncnc(Nc4ccc(OCc5cccc(F)c5)c(Cl)c4)c3c2)o1 [lapatinib] (first compound 0.4 µM, partner dose 0.8 µM) | 141%
N#CC[C@H](C1CCCC1)n1cc(-c2ncnc3[nH]ccc23)cn1 [ruxolitinib] + C[C@]1(c2nc3c(C(N)=O)cccc3[nH]2)CCCN1 [Veliparib] (first compound 1 µM, partner dose 1.4 µM) | 159%
CC[C@]1(O)C[C@H]2CN(CCc3c([nH]c4ccccc34)[C@@](C(=O)OC)(c3cc4c(cc3OC)N(C=O)[C@H]3[C@@](O)(C(=O)OC)[C@H](OC(C)=O)[C@]5(CC)C=CCN6CC[C@]43[C@@H]65)C2)C1 [vincristine] + Cn1cnc2c(F)c(Nc3ccc(Br)cc3Cl)c(C(=O)NOCCO)cc21 [selumetinib] (first compound 0.0001 µM, partner dose 0.015 µM) | 276%
CC[C@]1(O)C[C@H]2CN(CCc3c([nH]c4ccccc34)[C@@](C(=O)OC)(c3cc4c(cc3OC)N(C=O)[C@H]3[C@@](O)(C(=O)OC)[C@H](OC(C)=O)[C@]5(CC)C=CCN6CC[C@]43[C@@H]65)C2)C1 [vincristine] + Nc1cccc2c1CN(C1CCC(=O)NC1=O)C2=O [lenalidomide] (first compound 0.0001 µM, partner dose 1 µM) | 368%
N#CC[C@H](C1CCCC1)n1cc(-c2ncnc3[nH]ccc23)cn1 [ruxolitinib] + CCN(CC)CCNC(=O)c1c(C)[nH]c(/C=C2\C(=O)Nc3ccc(F)cc32)c1C [sunitinib] (first compound 1 µM, partner dose 0.4 µM) | 55.2%
COc1cc([C@@H]2c3cc4c(cc3[C@@H](O[C@@H]3O[C@@H]5CO[C@@H](C)O[C@H]5[C@H](O)[C@H]3O)[C@H]3COC(=O)[C@H]23)OCO4)cc(OC)c1O [etoposide] + O=C(/C=C/c1cccnc1)NCCCCC1CCN(C(=O)c2ccccc2)CC1 [FK866] (first compound 0.02 µM, partner dose 0.01 µM) | 144%
O=c1[nH]nc(Sc2ncc([N+](=O)[O-])s2)n1-c1ccc2c(c1)OCCO2 + CC(=O)O[C@@]12CO[C@@H]1C[C@H](O)[C@@]1(C)C(=O)[C@H](O)C3=C(C)[C@@H](OC(=O)[C@H](O)[C@@H](NC(=O)OC(C)(C)C)c4ccccc4)C[C@@](O)([C@@H](OC(=O)c4ccccc4)[C@H]21)C3(C)C [Docetaxel] (first compound 0.2 µM, partner dose 0.0001 µM) | 176%
N#CC[C@H](C1CCCC1)n1cc(-c2ncnc3[nH]ccc23)cn1 [ruxolitinib] + NC(=O)c1ccc(N(C(N)=O)c2c(F)cccc2F)nc1-c1ccc(F)cc1F [VX702] (first compound 1 µM, partner dose 0.4 µM) | 98.6%
N#CC[C@H](C1CCCC1)n1cc(-c2ncnc3[nH]ccc23)cn1 [ruxolitinib] + Cn1sc(=O)n(Cc2ccccc2)c1=O [TDZD-8] (first compound 1 µM, partner dose 0.4 µM) | 42%
CC[C@]1(O)C[C@H]2CN(CCc3c([nH]c4ccccc34)[C@@](C(=O)OC)(c3cc4c(cc3OC)N(C=O)[C@H]3[C@@](O)(C(=O)OC)[C@H](OC(C)=O)[C@]5(CC)C=CCN6CC[C@]43[C@@H]65)C2)C1 [vincristine] + C[C@@H](Oc1cc(-c2cnn(C3CCNCC3)c2)cnc1N)c1c(Cl)ccc(F)c1Cl [Crizotinib] (first compound 0.0001 µM, partner dose 0.2 µM) | 164%
O=c1[nH]nc(Sc2ncc([N+](=O)[O-])s2)n1-c1ccc2c(c1)OCCO2 + CN(c1ncccc1CNc1nc(Nc2ccc3c(c2)CC(=O)N3)ncc1C(F)(F)F)S(C)(=O)=O [PF562271] (first compound 0.2 µM, partner dose 0.08 µM) | 54.3%
O=C(Nc1cc(C(F)(F)F)cc(C(F)(F)F)c1)c1cc(Cl)ccc1O + Nc1ccn([C@@H]2O[C@H](CO)[C@@H](O)C2(F)F)c(=O)n1 [gemcitabine] (first compound 0.016 µM, partner dose 0.0004 µM) | 64.8%
COc1cc([C@@H]2c3cc4c(cc3[C@@H](O[C@@H]3O[C@@H]5CO[C@@H](C)O[C@H]5[C@H](O)[C@H]3O)[C@H]3COC(=O)[C@H]23)OCO4)cc(OC)c1O [etoposide] + CCCS(=O)(=O)Nc1ccc(F)c(C(=O)c2c[nH]c3ncc(Cl)cc23)c1F [PLX4720] (first compound 0.02 µM, partner dose 0.08 µM) | 85.4%
CC[C@]1(O)C[C@H]2CN(CCc3c([nH]c4ccccc34)[C@@](C(=O)OC)(c3cc4c(cc3OC)N(C=O)[C@H]3[C@@](O)(C(=O)OC)[C@H](OC(C)=O)[C@]5(CC)C=CCN6CC[C@]43[C@@H]65)C2)C1 [vincristine] + Cn1c(=O)n(-c2ccc(C(C)(C)C#N)cc2)c2c3cc(-c4cnc5ccccc5c4)ccc3ncc21 [NVP-BEZ235] (first compound 0.0001 µM, partner dose 0.004 µM) | 81%
COc1cc([C@@H]2c3cc4c(cc3[C@@H](O[C@@H]3O[C@@H]5CO[C@@H](C)O[C@H]5[C@H](O)[C@H]3O)[C@H]3COC(=O)[C@H]23)OCO4)cc(OC)c1O [etoposide] + CN(c1ncccc1CNc1nc(Nc2ccc3c(c2)CC(=O)N3)ncc1C(F)(F)F)S(C)(=O)=O [PF562271] (first compound 0.02 µM, partner dose 0.08 µM) | 212%

As entered above.
cleaved PARP positive nuclei fraction, O=c1[nH]nc(Sc2ncc([N+](=O)[O-])s2)n1-c1ccc2c(c1)OCCO2 + Nc1nc(F)nc2c1ncn2[C@@H]1O[C@H](CO)[C@@H](O)[C@@H]1O [fludarabine] (first compound 0.2 µM, partner dose 0.2 µM) is entered as 141%
cleaved PARP positive nuclei fraction, N#CC[C@H](C1CCCC1)n1cc(-c2ncnc3[nH]ccc23)cn1 [ruxolitinib] + NC(=O)c1ccc(N(C(N)=O)c2c(F)cccc2F)nc1-c1ccc(F)cc1F [VX702] (first compound 1 µM, partner dose 0.4 µM) is entered as 98.6%
